Assay results published in PubChem BioAssay AID2073 (Sanford-Burnham Center for Chemical Genomics, 2009).
About 570 (0.2%) of roughly 290,000 compounds were called active. This list was built around the results that the source calls inconclusive (neither active nor inactive); the mix of calls is not that of the screen. No stated cut-off is given here; in the data, active means inhibition mostly above about 51% (no sharp cut-off); inconclusive means no clear call, values can overlap the other calls; inactive means mostly below about 53%.

Amino acid sequences for entries named in this document (tags omitted).
UniProt Q00975, whole entry, looked up: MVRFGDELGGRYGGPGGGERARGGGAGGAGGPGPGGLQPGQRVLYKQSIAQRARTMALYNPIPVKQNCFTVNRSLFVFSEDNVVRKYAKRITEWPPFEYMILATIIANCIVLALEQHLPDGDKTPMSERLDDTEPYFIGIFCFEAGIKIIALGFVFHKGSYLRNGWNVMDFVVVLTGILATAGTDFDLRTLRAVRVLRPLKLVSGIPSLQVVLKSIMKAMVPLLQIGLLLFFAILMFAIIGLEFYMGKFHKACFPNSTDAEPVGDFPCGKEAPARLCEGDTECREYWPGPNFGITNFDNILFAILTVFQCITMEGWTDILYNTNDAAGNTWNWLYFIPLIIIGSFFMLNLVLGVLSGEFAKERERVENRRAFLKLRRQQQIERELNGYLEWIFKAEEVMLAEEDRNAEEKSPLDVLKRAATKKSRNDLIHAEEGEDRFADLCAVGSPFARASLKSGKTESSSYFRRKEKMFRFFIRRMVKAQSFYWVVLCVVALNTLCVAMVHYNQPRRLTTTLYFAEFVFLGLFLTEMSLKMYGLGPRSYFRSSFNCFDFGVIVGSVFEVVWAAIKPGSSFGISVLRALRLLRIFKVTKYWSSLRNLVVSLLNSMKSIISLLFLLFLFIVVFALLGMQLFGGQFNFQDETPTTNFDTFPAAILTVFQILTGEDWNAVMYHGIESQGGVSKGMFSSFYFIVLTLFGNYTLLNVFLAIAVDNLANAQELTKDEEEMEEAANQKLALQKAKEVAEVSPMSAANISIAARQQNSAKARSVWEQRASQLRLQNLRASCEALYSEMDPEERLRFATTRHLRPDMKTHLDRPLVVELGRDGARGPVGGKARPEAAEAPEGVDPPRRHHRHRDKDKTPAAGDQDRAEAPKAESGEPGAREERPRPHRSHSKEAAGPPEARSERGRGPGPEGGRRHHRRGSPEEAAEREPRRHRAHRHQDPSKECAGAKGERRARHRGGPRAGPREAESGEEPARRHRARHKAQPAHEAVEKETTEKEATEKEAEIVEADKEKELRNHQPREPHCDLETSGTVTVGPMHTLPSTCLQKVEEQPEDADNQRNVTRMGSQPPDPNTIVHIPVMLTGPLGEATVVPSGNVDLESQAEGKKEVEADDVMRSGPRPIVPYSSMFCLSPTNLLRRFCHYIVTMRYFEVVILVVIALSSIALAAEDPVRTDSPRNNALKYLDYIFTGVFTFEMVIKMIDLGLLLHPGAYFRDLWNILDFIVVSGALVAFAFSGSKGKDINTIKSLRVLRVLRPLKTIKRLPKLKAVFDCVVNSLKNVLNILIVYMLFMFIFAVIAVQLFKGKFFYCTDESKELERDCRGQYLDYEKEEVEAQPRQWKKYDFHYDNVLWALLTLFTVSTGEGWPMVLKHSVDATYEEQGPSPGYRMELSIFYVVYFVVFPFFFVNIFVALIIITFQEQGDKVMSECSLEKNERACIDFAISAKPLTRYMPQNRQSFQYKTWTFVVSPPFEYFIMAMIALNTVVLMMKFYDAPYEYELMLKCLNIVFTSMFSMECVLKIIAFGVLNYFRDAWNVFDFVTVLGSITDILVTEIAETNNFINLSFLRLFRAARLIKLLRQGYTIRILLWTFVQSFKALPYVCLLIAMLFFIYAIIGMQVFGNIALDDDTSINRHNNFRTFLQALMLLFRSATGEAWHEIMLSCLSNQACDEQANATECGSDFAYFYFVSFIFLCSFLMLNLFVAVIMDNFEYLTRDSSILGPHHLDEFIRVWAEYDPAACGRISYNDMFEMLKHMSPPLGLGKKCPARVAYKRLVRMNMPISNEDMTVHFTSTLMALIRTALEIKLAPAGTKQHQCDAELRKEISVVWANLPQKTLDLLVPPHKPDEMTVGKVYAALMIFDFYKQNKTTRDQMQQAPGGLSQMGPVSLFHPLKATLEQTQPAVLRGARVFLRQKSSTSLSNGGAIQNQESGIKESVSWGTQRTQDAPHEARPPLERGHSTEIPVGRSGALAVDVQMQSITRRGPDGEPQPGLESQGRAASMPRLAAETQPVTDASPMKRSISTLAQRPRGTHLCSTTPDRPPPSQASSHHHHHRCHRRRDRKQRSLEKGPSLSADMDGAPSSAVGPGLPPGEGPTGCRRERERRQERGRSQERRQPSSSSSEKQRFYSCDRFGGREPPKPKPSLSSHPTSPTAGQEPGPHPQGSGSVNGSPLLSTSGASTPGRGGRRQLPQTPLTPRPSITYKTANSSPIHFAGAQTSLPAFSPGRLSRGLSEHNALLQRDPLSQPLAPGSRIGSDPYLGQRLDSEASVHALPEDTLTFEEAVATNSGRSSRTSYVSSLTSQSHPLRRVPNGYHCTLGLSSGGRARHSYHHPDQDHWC

Molecular target: Voltage-dependent N-type calcium channel subunit alpha-1B (Homo sapiens) (UniProt Q00975)
Assay: disruptors of CaV2.2 binding to Mint1 – biochemical, HTRF (AID 2073)
Conditions: HTRF protein-protein interaction, Mint1-CaV2.2; at 20 µM; stronger effect = higher value

inhibition, active:
COc1ccccc1N=Cc1c(C)c(C#N)c2[nH]c3ccccc3n2c1=O 71.7%
c1ccc2c(c1)CCN(CCCNc1nc3ccccc3n3cnnc13)C2 50.8%
O=C(Nc1ccc2nc(-c3ccco3)c(-c3ccco3)nc2c1)N1CCN(c2ccccn2)CC1 84.9%

inhibition, inconclusive:
Cc1nc2sc(C)c(C)c2c(=O)o1 87.5%
COCCn1c(SCC(=O)N2CCOCC2)nc2c(c1=O)SCC2 51.5%
O=C(NCc1ccco1)C(Cc1ccccc1)N1C(=O)C2C3C=CC(C3)C2C1=O (configuration not stated) 56.4%
Cc1nc2ccc(-c3nc4ccc(N)cc4[nH]3)cc2[nH]1 67.3%
O=C(NCc1ccccc1Cl)c1cnc2n(c1=O)CCS2 86.7%
CCn1c2ccccc2c2cc(C3C(C#N)=C(C)NC(C)=C3C#N)ccc21 54.6%
Brc1ccc(C2Nc3cccc4cccc(c34)N2)o1 92.8%
COc1cccc(N/C=C/C(=O)c2ccc(OC)c(OC)c2)c1 74.3%
COc1cc(NC(=S)N2CCN(C/C=C/c3ccccc3)CC2)cc(OC)c1 65.7%
O=C(O)c1ccc(-c2nnc(-c3ccc([N+](=O)[O-])cc3)o2)cc1 61.8%
CCn1c(=N)c(C(=O)NCCCOC)cc2c(=O)n3cccc(C)c3nc21 99.2%
Cc1[nH]nc(SCC(=O)NCc2ccc(F)cc2)c1[N+](=O)[O-] 51.3%
COCCn1c(=NC(=O)c2sc3ccccc3c2Cl)sc2cc(S(N)(=O)=O)ccc21 52%
Nc1ccc(-c2nc3cc(N)ccc3n2CCO)cc1 52.5%
Cc1[nH]c2ccc(Br)cc2c(=O)c1CN1CCCCC1 57.7%
CN1CCCC1CCNc1ccc2c(=O)c3ccccc3oc2c1 (configuration not stated) 66%
CCC(C)NC(=O)CN(c1cc(C)ccc1OC)S(C)(=O)=O (configuration not stated) 69.3%
O=[N+]([O-])c1ccc(S(=O)(=O)N/N=C/c2ccco2)cc1 60.9%
CC1=C(C(=O)OCC2CCCO2)C(c2ccsc2)C2=C(CCCC2=O)N1 (configuration not stated) 64.7%
CCOC(=O)C1CCCN(CCC(=O)Nc2cc(C)ccc2C)C1 (configuration not stated) 53.7%
CC(OC(=O)c1cc2sccc2n1C)C(=O)NCCc1ccccc1 (configuration not stated) 87.1%
CN(C)S(=O)(=O)c1cccc(C(=O)C2=C3SC=C(c4ccccc4)N3CC2)c1 61%
CCN(CC)CCN(C(=O)c1cc2ccccc2cc1OC)c1nc2ccc(OC)cc2s1 56.8%
O=C(CCC(=O)NNc1nc2ccccc2c2nc(-c3ccccc3)nn12)NCCCN1CCCC1=O 64.7%
N=c1c(S(=O)(=O)c2ccccc2)cc2c(=O)n3ccccc3nc2n1Cc1ccco1 56%
C=CCN1C(=O)/C(=C\c2ccc(Cl)cc2)N=C1SCC(=O)NCCC 59.2%
CC(=O)Nc1ccccc1-c1nn[nH]n1 58.6%
O=C(C1CCCCC1)N1CCC(CO)(Cc2ccccc2Cl)CC1 77%
CCOC(=O)c1ccc(NC(=O)N2CCN(C(=O)c3ccco3)CC2)cc1 74.8%
Cc1ccc(S(=O)(=O)n2cnc3ccccc32)cc1[N+](=O)[O-] 65%
COC(=O)C1=CN(Cc2ccc(OC)cc2)C=C(C(=O)OC)C1c1ccsc1 61.2%
C#CCn1c(=NC(=O)c2ccc(S(=O)(=O)N3CCc4ccccc4C3)cc2)sc2cc(S(N)(=O)=O)ccc21 50.7%
CC1CCCCC1NC(=O)c1cc2c(=O)n3ccccc3nc2n1C (configuration not stated) 51.8%
O=C(CCN1CCOCC1)c1ccc(Br)cc1 68.1%
O=C(Cc1ccc(Cl)c(Cl)c1)Nc1ccc(SC(F)F)cc1 61.2%
COc1ccccc1NC(=O)c1c[nH]c2ccccc12 60.8%
N=C(c1cccc([N+](=O)[O-])c1)N1CCCCC1 56%
Cc1nc2nc(-c3ccco3)[nH]n2c(=O)c1C 58.4%
COC(=O)C1=C(Nc2ccccc2NS(=O)(=O)c2ccc(C(F)(F)F)cc2Cl)CSC1 67.3%
Clc1ccc(-c2nc3ncccn3c2Nc2ccc3c(c2)OCO3)cc1 86.3%
CCOC(=O)C1=C(C)NC2=C(C(=O)CC(C)(C)C2)C1c1ccc2c(c1)CCCN2C (configuration not stated) 58%
CCN(CC)C(=O)CSc1nnc(-c2cnccn2)n1-c1ccc(C)cc1 75.3%
COc1cc(CNCCc2ccccc2)ccc1OCc1ccc(Cl)nc1 60.5%
CCc1ccc(NC(=O)c2cc(C)on2)cc1 63.4%
O=C(c1noc2c1CCCC2)N1CCc2c([nH]c3ccccc23)C1c1ccccn1 (configuration not stated) 69.6%
CC(C)c1ccc(NC2CCCN(C(=O)CCN3CCOCC3)C2)cc1 (configuration not stated) 64.7%
COCCN1C(=O)c2ccccc2C(C(=O)NCC2CCCO2)C1c1c[nH]c2ccccc12 (configuration not stated) 87.5%
O=C(NC1CCCCC1)n1c(=O)oc2cc(S(=O)(=O)N3CCCCC3)ccc21 50.2%
CCOC(=O)/C=c1\s/c(=C\c2ccc(C(=O)OC)cc2)c(=O)n1CC(=O)Nc1ccccc1 90%
Cn1c(C(=O)NC2CCCCC2)cc2c(=O)n3ccccc3nc21 53.4%
CN(C)NC(=S)Nc1cccc(C(F)(F)F)c1 95.1%
COc1ccc(NC(=O)CSc2nnc(-c3ccccn3)n2Cc2ccco2)cc1OC 54.5%
O=C(O)CC(Cc1ccc(Br)cc1)C(=O)Nc1ccccc1 (configuration not stated) 72%
CC(=O)N/C(N)=N/c1nc(=O)c2ccccc2s1 64.9%
Cc1cc(C)c(C(=O)Nc2ccc(S(=O)(=O)Nc3onc(C)c3C)cc2)c(C)c1 54.8%
O=C(N/N=C/c1ccccc1O)C1CC(=O)N(c2ccc(Cl)cc2)C1 (configuration not stated) 93.1%
C[n+]1cc(-c2ccccc2)oc1-c1ccccc1 69.4%
CNC(=O)COc1ccc(-c2nn(C)c(=O)c3ccccc23)cc1 55%
Cc1cc(NC(=O)CSc2ccc3nnc(-c4ccc(F)cc4)n3n2)no1 92.7%
Cc1cccc(-c2nc3ccccc3c(=O)n2NC(=S)N(C)C)c1 70.2%
Cc1cccc(OCCCN2C(=O)C(=O)c3cc(C)ccc32)c1 96.3%
Cc1ccc2nc3c(cc(C(=O)NCCCn4ccnc4)n3C)c(=O)n2c1 59.2%
CC(C)[C@H](NC(=O)N1CCn2c1nc1ccccc12)C(=O)N1CCCCC1 60.2%
O=C(/C=C/c1ccc(OCCCF)cc1)Nc1ccnc(-c2cccnc2)n1 65.6%
CCCNC(=O)N1CCN(Cc2ccco2)CC1 63.4%
COC(=O)c1ccccc1NC(=O)C1CC(=O)N(c2ccc(C)cc2)C1 (configuration not stated) 66.8%

Part of the list above in order of molar mass, falling:
inhibition, inconclusive:
COC(=O)C1=C(Nc2ccccc2NS(=O)(=O)c2ccc(C(F)(F)F)cc2Cl)CSC1 67.3%
COc1ccc(NC(=O)CSc2nnc(-c3ccccn3)n2Cc2ccco2)cc1OC 54.5%
COc1cc(NC(=S)N2CCN(C/C=C/c3ccccc3)CC2)cc(OC)c1 65.7%
O=C(/C=C/c1ccc(OCCCF)cc1)Nc1ccnc(-c2cccnc2)n1 65.6%
CCOC(=O)c1ccc(NC(=O)N2CCN(C(=O)c3ccco3)CC2)cc1 74.8%
O=C(N/N=C/c1ccccc1O)C1CC(=O)N(c2ccc(Cl)cc2)C1 (configuration not stated) 93.1%
CC(OC(=O)c1cc2sccc2n1C)C(=O)NCCc1ccccc1 (configuration not stated) 87.1%
Cc1[nH]c2ccc(Br)cc2c(=O)c1CN1CCCCC1 57.7%
Cc1[nH]nc(SCC(=O)NCc2ccc(F)cc2)c1[N+](=O)[O-] 51.3%
CNC(=O)COc1ccc(-c2nn(C)c(=O)c3ccccc23)cc1 55%
COc1cccc(N/C=C/C(=O)c2ccc(OC)c(OC)c2)c1 74.3%
O=C(CCN1CCOCC1)c1ccc(Br)cc1 68.1%
O=[N+]([O-])c1ccc(S(=O)(=O)N/N=C/c2ccco2)cc1 60.9%
Nc1ccc(-c2nc3cc(N)ccc3n2CCO)cc1 52.5%
COc1ccccc1NC(=O)c1c[nH]c2ccccc12 60.8%
N=C(c1cccc([N+](=O)[O-])c1)N1CCCCC1 56%

Next part:

inhibition, inactive:
OC1CNCc2cc3c(cc21)OCCO3 (configuration not stated) -5.4%
CCC(C)(C)n1nnnc1C(c1ccc(Cl)cc1)N1CCN(C)CC1 (configuration not stated) -3.8%
CCc1ccccc1NS(=O)(=O)c1cccc2nsnc12 4.2%
Cc1nn(C)c(C)c1CS(=O)(=O)c1ccccc1 -4%
CC(=O)Nc1ccc2nsnc2c1 9%
CCOC(=O)c1cc2c(=O)n3ccccc3nc2n(Cc2ccco2)c1=NC(=O)c1ccc(OC)cc1 33.1%
CCc1cc2c(=O)c(-c3nc4ccccc4[nH]3)coc2c(CN2CCCCC2)c1O 9.7%
CCCN1C2=NCCN2c2ccccc21 2.5%
CC(C)Cn1c(N)c(C(=O)COC(=O)c2cc(-c3ccco3)nc3ccccc23)c(=O)n(C)c1=O 19.7%
Clc1ccccc1-c1nnc2sc(-c3ccc(Br)o3)nn12 -3.6%
CS(=O)(=O)C1=NSC2=NC(=O)/C(=C\c3cccn3-c3ccc(Cl)cc3)C(=N)N21 24.5%
Nc1ccc(-c2nc3ccccc3[nH]2)cc1 5.5%
COc1cc(C2c3c([nH]c(=O)[nH]c3=O)Nc3ccc4ccccc4c32)ccc1O (configuration not stated) -1.1%
CCOC(=O)c1ccc(N=NN(C)C)cc1 -7%
O=c1c2c3n(c(=O)nc2[nH]n1-c1ccccc1)CCCCC3 1.1%
O=C(Nc1ccc2c(c1)OCCO2)c1cccc(Br)c1 -4.4%
C=C(C)Cn1c(C2CC(=O)N(Cc3ccccc3)C2)nc2ccccc21 (configuration not stated) -9.9%
CCOC(=O)c1c(-n2cnnn2)sc(C)c1C -6.3%
Cc1ccc(C)c(N(C(=O)c2csnn2)C(C(=O)NC2CCCCC2)c2ccccn2)c1 (configuration not stated) 1.3%
Cc1c(CCC(=O)O)c(=O)oc2cc(OCc3cccc(F)c3)ccc12 16.2%
O=C1C(Cc2ccccc2)NC(=S)N1Cc1ccccc1 (configuration not stated) -4.6%
N#C/C(=C/c1ccc(N2CCOCC2)o1)c1ccc(Br)cc1 39.6%
Cc1[nH]c2ccccc2c1/C=N/Nc1nncn1N -14.7%
